{
  "sequences": {"note": "Protein sequences, listed by entry. Tags and fused reporters are not part of them.", "UniProt Q9JI91, whole entry": "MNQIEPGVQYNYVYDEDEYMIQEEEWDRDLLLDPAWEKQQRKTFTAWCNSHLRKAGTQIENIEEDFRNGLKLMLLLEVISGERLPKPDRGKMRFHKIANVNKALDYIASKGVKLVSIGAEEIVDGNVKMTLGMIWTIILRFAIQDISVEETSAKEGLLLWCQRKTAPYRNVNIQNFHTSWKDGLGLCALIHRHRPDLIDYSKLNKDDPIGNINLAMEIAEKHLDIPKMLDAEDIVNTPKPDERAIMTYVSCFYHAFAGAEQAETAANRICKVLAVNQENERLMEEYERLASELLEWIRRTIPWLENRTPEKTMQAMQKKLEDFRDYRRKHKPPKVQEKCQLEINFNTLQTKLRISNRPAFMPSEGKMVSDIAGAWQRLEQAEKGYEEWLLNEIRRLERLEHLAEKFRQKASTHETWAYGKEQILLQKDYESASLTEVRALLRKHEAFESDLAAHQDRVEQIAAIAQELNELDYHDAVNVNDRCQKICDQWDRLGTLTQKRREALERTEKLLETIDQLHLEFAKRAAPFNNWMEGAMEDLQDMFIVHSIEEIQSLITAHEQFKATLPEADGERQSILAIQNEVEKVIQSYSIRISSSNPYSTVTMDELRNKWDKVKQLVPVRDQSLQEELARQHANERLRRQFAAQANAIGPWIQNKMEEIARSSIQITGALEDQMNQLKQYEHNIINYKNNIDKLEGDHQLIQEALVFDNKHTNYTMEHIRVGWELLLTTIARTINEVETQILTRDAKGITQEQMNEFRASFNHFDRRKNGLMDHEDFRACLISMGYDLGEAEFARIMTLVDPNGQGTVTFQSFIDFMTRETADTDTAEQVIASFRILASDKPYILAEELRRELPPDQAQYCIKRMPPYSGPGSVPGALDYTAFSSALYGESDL"},
  "source": "paper doi:10.1101/2023.12.06.570334",
  "molecules": {"B1": {"name": "palmdelphin (PALMD), endogenous (protein, UniProt Q9JHU2 1-551)", "chain": "MEEAELVKGRLQAITDKRKIQEEISQKRLKIEEEKLKHQHLKKKALREKWLLDGIGSGKEHEEMRKQNQQDQHQTQVLEQSILRLEKEIQDLEKAELQISANEEAILKKLKSIEKTTEDIIRSVKVEKEENPEESIEDIYANIPDLPSSYIPSRLRKERNEGPDDEQNRKALYAMEIKVEKDLKTGESVVLSSIPLPSDDFKSTGIKVYEDRQKSVYAVSSNQNTTYNGTDGLAPVEVEDLLRQASERNSKSPTEYHEPVYANPFCRPVTPQRERVISPGPNFQERIMMKTNGLGNHANESAHNMTDGLSERRSNGPTHTSPTRPTPQPRSMVQQVEEMVHTQQKRMASPWEESSNRQNEHEVSPRMELSPSRASPGKSGPQCSSPTCQEETEDVRYNIVHSLPSDVDDTEPVTMIFMGYQQADDNEEEKKLLTGYDGVIHAELVVIDDEAEDNEGQTERPSYHPVAPYNQVYQPPKPTPLPRKRAEVRPYENTNHKSPHKNSISLKEQEERLGSPARHSPLDVPVAGDGTEDPSLTALRIRMAKLGKKVI"}, "B2": {"name": "PEBP1 (protein, UniProt P70296 1-187)", "chain": "MAADISQWAGPLCLQEVDEPPQHALRVDYAGVTVDELGKVLTPTQVMNRPSSISWDGLDPGKLYTLVLTDPDAPSRKDPKFREWHHFLVVNMKGNDISSGTVLSDYVGSGPPSGTGLHRYVWLVYEQEQPLSCDEPILSNKSGDNRGKFKVETFRKKYNLGAPVAGTCYQAEWDDYVPKLYEQLSGK"}},
  "target": "ACTN2-BioID2 fusion protein (α-actinin-2 fused to BioID2-HA) (UniProt Q9JI91)",
  "assay": "proximity labelling",
  "note": "Results are given in words; binding and its absence hold for the method and conditions named. In cells and extracts the contact can be indirect. These calls come from enrichment with a bait or labelling near it, and not all partners need be listed.",
  "data": [
    {"molecule": "DPYSL3 (from UniProt Q62188 1-570)", "values": [
      {"measurement": "binding", "result": "binds"}
    ]},
    {"molecule": "PCBP1 (from UniProt P60335 1-356)", "values": [
      {"measurement": "binding", "result": "binds"}
    ]},
    {"molecule": "VCP (from UniProt Q01853 1-806)", "values": [
      {"measurement": "binding", "result": "binds"}
    ]},
    {"molecule": "B1", "values": [
      {"measurement": "binding", "result": "binds"}
    ]},
    {"molecule": "B2", "values": [
      {"measurement": "binding", "result": "binds"}
    ]}
  ]
}
